In patent publication US12729458B2, “Discovery and evolution of biologically active metabolites” (The Regents of the University of Colorado, a Body Corporate, priority 2020, dated 2026):
Some results were stated once for a whole list of compounds, not compound by compound. At least one compound was matched to its structure with a doubt left.

Chains of the proteins cited; added tags and fusions are not shown. Lines headed by an entry give the natural chain unless they say otherwise; changes in a name come on top.
UniProt P29350: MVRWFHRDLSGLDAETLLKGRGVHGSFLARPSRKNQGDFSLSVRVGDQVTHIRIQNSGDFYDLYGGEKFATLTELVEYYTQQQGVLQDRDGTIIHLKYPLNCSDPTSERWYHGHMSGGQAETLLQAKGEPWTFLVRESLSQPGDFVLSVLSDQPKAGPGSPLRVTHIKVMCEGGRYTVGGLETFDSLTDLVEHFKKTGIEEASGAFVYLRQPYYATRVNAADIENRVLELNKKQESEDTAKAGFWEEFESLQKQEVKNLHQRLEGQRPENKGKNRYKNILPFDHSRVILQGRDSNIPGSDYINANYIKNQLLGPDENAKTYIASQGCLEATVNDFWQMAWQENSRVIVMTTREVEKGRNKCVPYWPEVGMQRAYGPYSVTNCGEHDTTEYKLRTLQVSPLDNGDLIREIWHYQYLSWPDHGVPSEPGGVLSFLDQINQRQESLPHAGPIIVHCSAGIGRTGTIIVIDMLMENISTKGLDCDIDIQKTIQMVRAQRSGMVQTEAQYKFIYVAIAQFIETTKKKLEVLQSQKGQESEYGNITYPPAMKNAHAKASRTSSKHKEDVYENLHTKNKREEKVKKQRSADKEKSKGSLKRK

Molecular target: T1, SHP1 (Homo sapiens, UniProt P29350)
T1 construct: made in house; host or cells: E. coli BL21 (DE3)
Test: SHP1-catalyzed hydrolysis of 4-MUP in the presence of terpenoids
Assay type: biochemical, H. sapiens
Conditions: at the solubility limit
Protocol: Enzyme kinetics. To examine terpenoid-mediated inhibition, we measured PTP-catalyzed hydrolysis of p-nitrophenyl phosphate (pNPP) or 4-methylumbelliferyl phosphate (4-MUP, used when KM for pNPP was large) in the presence of various concentrations of terpenoids. Each reaction included PTP (0.05 μM PTP1B/TCPTP or 0.1 μM SHP1/SHP2 in 50 mM HEPES, 0.5 mM TCEP, 50 μg/ml BSA), pNPP (0.33, 0.67, 2, 5, 10, and 15 mM) or 4-MUP (0.13, 0.27, 0.8, 2.27, 2.93, 4.53, 7.07, and 8 mM), inhibitor (with concentrations listed in the figures), buffer (50 mM HEPES pH=7.3, 50 μg/ml BSA), and DMSO at 10% v/v. We monitored the formation of p-nitrophenol by measuring absorbance at 405 nm every 10 seconds for 5 minutes on a SpectraMax M2 plate reader and the formation of 4-methylumbelliferyl by measuring fluorescence at 450 nm (370 nm ex, 435 nm cutoff, medium gain).
We used a custom MATLAB script to process all raw kinetic data. This script removed all concentration values that fell outside of either (i) the range of our standard curve (absorbance/fluorescence vs. μM; FIG. 39) or (ii) the initial rate regime (>10% of the pNPP or 4-MUP concentration used in the assay). When this step reduced kinetic dataset to fewer than ten points, we re-measured those datasets to collect at least ten. We fit final datasets, in turn, with a linear regression model (using Matlab's backslash operator). […]

CC(C)=CCC=C(C)C1CC=C(C)CC1 (stereo not drawn) [α-bisabolene]
% inhibition of SHP1: ≤ 25%
